Results as given in the supplement of paper PMC3334620.
The full ranking holds about 33,000 sequences; the median of “E-score (-0.5 to 0.5)” is about -0.015, and the highest 2% start at about 0.3. Some of the results follow.

target: T1, Abf1 (UniProt P14164); assay: PBM E-score (8-mer binding enrichment) (E-score (-0.5 to 0.5)); higher = stronger / more preferred TF binding; conditions: protein concentration: 200 nM; construct: GST-full length
T1 sequence: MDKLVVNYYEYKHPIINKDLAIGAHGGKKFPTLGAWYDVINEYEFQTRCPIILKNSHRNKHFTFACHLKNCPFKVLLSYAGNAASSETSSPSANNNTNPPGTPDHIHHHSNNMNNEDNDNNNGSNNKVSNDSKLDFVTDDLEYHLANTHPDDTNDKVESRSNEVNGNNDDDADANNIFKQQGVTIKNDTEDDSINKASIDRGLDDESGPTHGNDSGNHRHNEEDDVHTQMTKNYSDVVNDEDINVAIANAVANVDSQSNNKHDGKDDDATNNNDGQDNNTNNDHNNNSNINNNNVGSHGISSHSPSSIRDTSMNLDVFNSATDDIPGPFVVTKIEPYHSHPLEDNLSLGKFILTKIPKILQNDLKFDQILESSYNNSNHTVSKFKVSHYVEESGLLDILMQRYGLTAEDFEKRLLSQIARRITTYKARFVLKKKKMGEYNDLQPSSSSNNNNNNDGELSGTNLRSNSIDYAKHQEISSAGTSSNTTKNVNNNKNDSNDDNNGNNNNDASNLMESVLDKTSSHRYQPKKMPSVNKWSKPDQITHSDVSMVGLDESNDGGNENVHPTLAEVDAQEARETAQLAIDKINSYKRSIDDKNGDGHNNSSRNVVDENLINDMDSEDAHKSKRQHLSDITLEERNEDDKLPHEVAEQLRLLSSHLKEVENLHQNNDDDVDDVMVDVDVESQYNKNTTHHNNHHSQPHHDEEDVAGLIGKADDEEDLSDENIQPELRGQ
Summary of the method: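 Yeast transcription factors carrying a GST tag, as full-length proteins or DNA-binding domains, were produced by PURExpress in vitro transcription/translation. About 100-200 nM protein was applied to universal all-10-mer Agilent arrays, double-stranded by primer extension on fresh or once-stripped slides. Bound protein was detected with fluorescent anti-GST, and scans were normalised with masliner. The Universal PBM Analysis Suite gave each ungapped eight-base word, pooled with its reverse complement, an E-score, a modified Wilcoxon-Mann-Whitney statistic.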

| Sequence | PBM E-score |
| --- | --- |
| CAAATACA | 0.0656 |
| TAGAGAAA | -0.0221 |
| GCGATAGC | 0.013 |
| CTAATTTC | 0.174 |
| CTGTGGGA | -0.215 |
| AAGCAGGC | -0.303 |
| CTGTTCCA | -0.114 |
| GACTGTTA | 0.0803 |
| TCTGCACA | -0.0362 |
| CCGAGTTA | 0.0322 |
| GACGGCCC | 0.072 |
| ACCCGGCT | -0.0353 |
| TCGGCACA | -0.116 |
| ATCATCCG | 0.276 |
| AGGAGTCC | -0.293 |
| ATGGGTGC | -0.175 |
| CTTCGTGA | 0.317 |
| AGCACACA | -0.119 |
| CTGCACAA | -0.0813 |
| CAACCGAC | 0.19 |
| AAACACTC | -0.0792 |
| AGGATCTC | -0.0704 |
| GTCTCCCA | -0.187 |
| ACGCTCTG | -0.0343 |
| CCACCATA | -0.177 |

| Sequence | PBM E-score |
| --- | --- |
| ATTTGATG | 0.023 |
| ACGTTAAC | 0.19 |
| CGAAGATA | 0.19 |
| ACATTCAC | -0.0436 |
| CCTGCGCG | -0.00703 |
| CCGCCTCA | -0.15 |
| CATCCTTA | 0.0417 |
| AGAAGGGG | -0.319 |
| GGCCGTCA | 0.0311 |
| GAAATCTC | 0.00946 |
| CTCTTGGA | -0.0334 |
| ATTGACTA | -0.0394 |
| CCAGGGAG | -0.228 |
| CCTTCTCG | -0.245 |
| CAGAGAGG | -0.254 |
| GGAGTGAC | 0.333 |
| GTGCACGA | 0.187 |
| ATGATATG | 0.367 |
| CACCGCTC | -0.0442 |
| ACTTTGAA | 0.00486 |
| GTCGAACA | 0.166 |
| CAGTAGTC | -0.00363 |
| ACTTAGCG | 0.172 |
| AGGCAAAC | -0.23 |
| ATAAGGGC | -0.0744 |

| Sequence | PBM E-score |
| --- | --- |
| ATCACCAC | 0.356 |
| AGATGAGA | 0.138 |
| CTGATATC | 0.0641 |
| AATCTAAA | -0.0431 |
| ACAGAACT | 0.118 |
| AACGATGG | -0.0611 |
| ACCCTGAT | -0.059 |
| ATTTGACC | 0.0706 |
| ACACAGTA | 0.0919 |
| AAGTCTAG | -0.134 |
| ACCATGAC | 0.15 |
| GCGGAAAA | -0.0831 |
| AAGACAAC | 0.0616 |
| GCAAGGAC | -0.0807 |
| GCACCTGA | 0.137 |
| CGTACGGC | 0.396 |
| ATATAACG | 0.249 |
| CAATATAA | 0.205 |
| TGCGAGCA | -0.0529 |
| CGTGTAGA | 0.212 |
| CACGTCAC | 0.368 |
| GGGATCCA | -0.048 |
| CCCGAGAA | -0.106 |
| ATTGAACA | 0.0816 |
| ATACCCAG | -0.179 |

| Sequence | PBM E-score |
| --- | --- |
| AGGTGACG | 0.0988 |
| AAGAGTCG | -0.025 |
| GGTGACTA | 0.149 |
| CCTGATGC | -0.132 |
| AACCCATT | -0.0681 |
| ACGGCTAG | 0.128 |
| CGGCCAGA | -0.234 |
| ACTGTATG | -0.184 |
| CGGCTAAG | 0.0162 |
| CTCGAGGC | -0.193 |
| AAAGCTAG | -0.236 |
| CCGGCACG | 0.0164 |
| GGGTCCCA | -0.247 |
| CCCCGCAG | -0.24 |
| ACGAAAAA | 0.216 |
| CCTCTATA | -0.0605 |
| ATATGAGG | -0.0942 |
| ATTGTCGC | 0.192 |
| CGCGCGTC | 0.176 |
| CGCAGCGA | -0.00716 |
| CGCAGGCC | -0.238 |
| GAAACGGA | 0.129 |
| CGAAGCCC | -0.0776 |
| GGCCACAA | 0.0114 |
| AAGCAGTG | -0.148 |

Some of the entries so far, with each value named:
AGGTGACG
  PBM E-score = 0.0988
AAGAGTCG
  PBM E-score = -0.025
GGTGACTA
  PBM E-score = 0.149

Later entries

| Sequence | PBM E-score |
| --- | --- |
| GGAGCTGA | -0.0921 |
| ACTGCTCC | -0.186 |
| AGTCGGGC | 0.0518 |
| CTAAGCTA | 0.0948 |
| AAGTCACC | 0.227 |
| CTTCCTCC | -0.272 |
| AGGTTCAG | -0.113 |
| CTTAAAAA | -0.0302 |
| AACGCGTG | 0.0355 |
| AGAATTAT | 0.111 |
| ACGTCGGA | 0.135 |
| ACAGCTGA | -0.122 |
| ACCAACCC | -0.0362 |
| CTGTGCCA | -0.235 |
| CGCTCCCG | 0.00583 |
| CATGGACG | 0.108 |
| CGCGCCGC | -0.0824 |
| CTGAACAA | 0.177 |
| CTTAGATC | 0.0595 |
| CGAAATCG | 0.0686 |
| AAATCAGG | 0.0156 |
| CCAGAGGA | -0.0426 |
| ACACGAGG | 0.112 |
| CCGAACGC | 0.0384 |
| GATGGTCA | -0.087 |

| Sequence | PBM E-score |
| --- | --- |
| AAGGGTAA | -0.0936 |
| GAATGGAA | 0.0821 |
| GGATCGGA | -0.264 |
| TGCAAGAA | 0.0333 |
| CCTCCGAG | -0.285 |
| CGTGGCGC | 0.0526 |
| GCGGGACA | -0.11 |
| AGTTACAT | -0.00081 |
| CTGCTAAA | 0.0279 |
| AGATGGTA | -0.0549 |
| CAAGGGAC | -0.247 |
| CACGGGTA | -0.00472 |
| ATATCACA | 0.282 |
| AAACGTAA | 0.0327 |
| TATTCAGA | 0.182 |
| ATCGTTCC | 0.068 |
| ACCCTTAG | -0.0524 |
| AGCGTCTG | -0.0847 |
| AGAACGAC | 0.296 |
| AAACGAAT | 0.147 |
| CAGTAAGG | -0.206 |
| CTTAGCGC | 0.117 |
| CAGGTATG | -0.0488 |
| AGTATTGG | -0.064 |
| CGCTCGAC | -0.14 |

Single values from the results shown:
For PBM E-score, CTTAGATC reads 0.0595
For PBM E-score, ACGGCTAG reads 0.128
For PBM E-score, CGGCCAGA reads -0.234
For PBM E-score, CTGTGCCA reads -0.235
For PBM E-score, CCTCTATA reads -0.0605
For PBM E-score, ACGCTCTG reads -0.0343
For PBM E-score, CCTGATGC reads -0.132

Remaining list, next part:

| Sequence | PBM E-score |
| --- | --- |
| CTCCTGAC | 0.0261 |
| TCGGATCA | 0.046 |
| GGACCGCC | -0.141 |
| ACCGTGCT | 0.139 |
| AAAGGATG | 0.106 |
| TACCAATA | -0.0982 |
| GAGTTCAC | -0.0713 |
| AAAAAGCA | -0.0031 |
| CCCCCTAA | -0.202 |
| TCACTACA | 0.344 |
| CCACATAG | -0.141 |
| AAAGTCAC | 0.274 |
| AGGCTAGC | -0.223 |
| AGTTCTAG | 0.0126 |
| AACTTCAC | 0.055 |
| CCCTTTCG | 0.0808 |
| ATACTACC | 0.0293 |
| AAAGACAC | -0.0555 |
| ATGTAACG | 0.221 |
| CAGCCAAG | -0.185 |
| AACTGGGG | -0.0927 |
| GATGGGCC | -0.28 |
